Assay results: PMC7819943, “Rice protein-binding microarrays: a tool to detect cis-acting elements near promoter regions in rice”
The other results are listed elsewhere or left out.

The sequences below were run against T1, OsSMF1 (Oryza sativa, UniProt Q6ZLB0 1-436) (assay: protein-binding microarray (RPBM); PBS, 2% BSA, 51.3 ng/ul salmon testes DNA, 50 uM zinc acetate, 200 nM TF, 25 C, 1 h; high values mean tight binding). Conditions: protein: recombinant; tags: N-terminal polyhistidine and DsRed monomer fusion (pET32a); chain copies: 2; label: CyDye5-dUTP incorporated in the synthesized complementary strand; 3' TTTTT single-stranded linker to array surface; dsDNA, one strand shown.
T1 sequence: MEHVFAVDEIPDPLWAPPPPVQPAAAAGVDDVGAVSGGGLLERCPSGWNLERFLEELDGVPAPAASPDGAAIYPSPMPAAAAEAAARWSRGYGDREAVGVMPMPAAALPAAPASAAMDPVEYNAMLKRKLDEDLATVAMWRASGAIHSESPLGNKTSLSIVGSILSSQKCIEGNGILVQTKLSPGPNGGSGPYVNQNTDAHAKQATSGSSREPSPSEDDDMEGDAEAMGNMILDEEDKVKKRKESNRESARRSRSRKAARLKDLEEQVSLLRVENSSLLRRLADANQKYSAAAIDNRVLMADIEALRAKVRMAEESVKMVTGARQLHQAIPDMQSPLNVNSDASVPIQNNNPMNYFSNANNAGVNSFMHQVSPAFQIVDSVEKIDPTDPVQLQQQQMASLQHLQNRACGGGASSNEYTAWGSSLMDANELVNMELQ
In short: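 Binding signal here means per-feature fluorescence intensity in arbitrary units. The values were read on an Axon 4000B scanner after a custom Agilent array, double-stranded by primer extension with Cy5-dUTP, was incubated with 200 nM protein at 25 °C for 1 h in PBS with 2% BSA, salmon testes DNA and 50 µM zinc acetate, then washed. The proteins were transcription factors with an N-terminal polyhistidine tag and DsRed, expressed in E. coli BL21-CodonPlus and purified on Ni–NTA.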

| Sequence | binding signal |
| --- | --- |
| CTATGGGCTTCATTGTCGCGTAGAGTGGTGACTGGTCTTCCGGAGTCACCTAGTGCAG | 3970 fluorescence intensity (a.u.) |
| CAATTACCTTCTCCCCACCGCGGAGGGATTCACGTCATCGCGGAGTCACCTAGTGCAG | 4240 fluorescence intensity (a.u.) |
| AAGGCCCTAAACCTATTCAGGCTCTGTACACGTGGCGGCCCGGAGTCACCTAGTGCAG | 7350 fluorescence intensity (a.u.) |
| GCCTCCATAATGAATGTGGTGCCATGGTTCTTTACAGATACGGAGTCACCTAGTGCAG | 4140 fluorescence intensity (a.u.) |
| TTCGTTGGAGCTACAGCTACAGCTAGTCAGCTACCACGAACGGAGTCACCTAGTGCAG | 5130 fluorescence intensity (a.u.) |
| ATGTTTTATTTCCTCATCATACTTTCCTTTTAAGTTCGTGCGGAGTCACCTAGTGCAG | 3660 fluorescence intensity (a.u.) |
| GGAGTGGCGGGGTTGCGGCATTGGGAGCTGACGTGGCCGCCGGAGTCACCTAGTGCAG | 25400 fluorescence intensity (a.u.) |
| TCACAAGGCTCTCTGGAGCATTTGTGGCACACGTCTTGATCGGAGTCACCTAGTGCAG | 3170 fluorescence intensity (a.u.) |
| CCCCGCCCCGCCGGACCGCGCCCGCGCTGCCGCCGTGGCGCGGAGTCACCTAGTGCAG | 5220 fluorescence intensity (a.u.) |
| AGAACGTTGCCACGTGCCCACGTCAGCCAGAGTGCGTGTGCGGAGTCACCTAGTGCAG | 17000 fluorescence intensity (a.u.) |
| AGCTTAAGATGAACTAAGGCTCACACGTGGATACCTTGGGCGGAGTCACCTAGTGCAG | 10300 fluorescence intensity (a.u.) |
| AACTAGCGGATTTATAAAGTGACTATGGGTGTGTTTAGTTCGGAGTCACCTAGTGCAG | 3510 fluorescence intensity (a.u.) |
| ATAGATTTCCGCCCAAAACCATCCACCTTTTGCCGCCTCCCGGAGTCACCTAGTGCAG | 13500 fluorescence intensity (a.u.) |
| CTTCTGATCCGTTTGTGTCAGAGCCAAATCTTCTTCTTCTCGGAGTCACCTAGTGCAG | 3600 fluorescence intensity (a.u.) |
| ATTTATATTCAGAGGAAGCTTATGCAGTTCTTTATCCTCCCGGAGTCACCTAGTGCAG | 26700 fluorescence intensity (a.u.) |
| GTTCCGGGCCAGCCCAACCAACGCGGGCCCCACGTCATTCCGGAGTCACCTAGTGCAG | 13900 fluorescence intensity (a.u.) |
| ATTCGTTATACTAGGTGACATCTCATCTAATATTTGTTTACGGAGTCACCTAGTGCAG | 4270 fluorescence intensity (a.u.) |
| GCCTTCTTCCTCGCCTGCGGCCGTCTCCGCCACCTCGACCCGGAGTCACCTAGTGCAG | 4040 fluorescence intensity (a.u.) |
| ATTCAAACACCACCATTCTGACACCGCGACGTGATCCCAGCGGAGTCACCTAGTGCAG | 5870 fluorescence intensity (a.u.) |
| CCGTCCTCCGGCCGCGGCGCGCGCCGGCAGCCGCGGCCGCCGGAGTCACCTAGTGCAG | 4140 fluorescence intensity (a.u.) |
| GCCCACCCTCCCTCCACGTGTCGCGCCTCCGACCGTCCGACGGAGTCACCTAGTGCAG | 14000 fluorescence intensity (a.u.) |
| CCTTGACAGTGCACACGCCAAAACCACCGCTAACTCCCACCGGAGTCACCTAGTGCAG | 21000 fluorescence intensity (a.u.) |
| CTCCGCGGGACGCGTGTCTCCGCTCCCACGCCGCTGTCTACGGAGTCACCTAGTGCAG | 4460 fluorescence intensity (a.u.) |

Individual results from the results shown.
Value of AACTAGCGGATTTATAAAGTGACTATGGGTGTGTTTAGTTCGGAGTCACCTAGTGCAG under binding signal: 3510 fluorescence intensity (a.u.)
Value of CCGTCCTCCGGCCGCGGCGCGCGCCGGCAGCCGCGGCCGCCGGAGTCACCTAGTGCAG under binding signal: 4140 fluorescence intensity (a.u.)
